Test results published in patent US9828389B2, “Tetrazolinone compounds and their use as pesticides” (SUMITOMO CHEMICAL COMPANY, LIMITED, priority 2012, dated 2017).
Where two headings read alike, the source gives them in different places. Some results were stated once for a whole list of compounds, not compound by compound.

Key:
[1] = system: rice blast fungi (Magnaporthe grisea); type: in vivo; conditions: rice (cv; Nipponbare), 6 days in contact with infected seedlings
[2] = system: wheat rust fungi (Puccinia recondita); experiment: Wheat rust control test, foliar spray on wheat; type: in vivo; conditions: wheat (cv; Shirogane), inoculated after 5 days, observed after 1+8 days
Description: The spores of wheat rust fungi (Puccinia recondita) were sprinkling-inoculated. After inoculation, the plants were placed under a dark and humid condition at 23° C. for 1 day and were then cultivated at 20° C. under lighting for 8 days and a lesion area was observed.

CCOc1cccc(-n2nnn(C)c2=O)c1COc1ccc(-c2ccn(C)n2)cc1C [Present compound 122, 1-{3-ethoxy-2-[2-methyl-4-(1-methyl-1H-pyrazol-3-yl)-phenoxymethyl]-phenyl}-4-methyl-1,4-dihydrotetrazole-5-one]
lesion area compared to the lesion area in untreated plants ([1]; foliar spray 500 ppm): ≤ 30%
lesion area compared to the lesion area in untreated plants ([2]; foliar spray 200 ppm): ≤ 30%

CCOc1cccc(-n2nnn(C)c2=O)c1COc1ccc(-c2ccn(CC)n2)cc1C [Present compound 123, 1-{3-ethoxy-2-[2-methyl-4-(1-ethyl-1H-pyrazol-3-yl)-phenoxymethyl]-phenyl}-4-methyl-1,4-dihydrotetrazole-5-one]
lesion area compared to the lesion area in untreated plants ([1]; foliar spray 200 ppm): ≤ 30%
lesion area compared to the lesion area in untreated plants ([2]; foliar spray 200 ppm): ≤ 30%

CCOc1cccc(-n2nnn(C)c2=O)c1COc1ccc(-c2cc(C)n(C)n2)cc1C [Present compound 124, 1-{3-ethoxy-2-[2-methyl-4-(1,5-dimethyl-1H-pyrazol-3-yl)-phenoxymethyl]-phenyl}-4-methyl-1,4-dihydrotetrazole-5-one]
lesion area compared to the lesion area in untreated plants ([1]; foliar spray 200 ppm): ≤ 30%
lesion area compared to the lesion area in untreated plants ([1]; foliar spray 500 ppm): ≤ 30%
lesion area compared to the lesion area in untreated plants ([2]; foliar spray 200 ppm): ≤ 30%

CCOc1cccc(-n2nnn(C)c2=O)c1COc1ccc(-n2nc(C)c(C)c2C)cc1Cl [Present compound 128, 1-{3-ethoxy-2-[2-chloro-4-(3,4,5-trimethyl-pyrazol-1-yl)-phenoxymethyl]-phenyl}-4-methyl-1,4-dihydrotetrazole-5-one]
lesion area compared to the lesion area in untreated plants ([1]; foliar spray 200 ppm): ≤ 30%
lesion area compared to the lesion area in untreated plants ([2]; foliar spray 200 ppm): ≤ 30%

CCOc1cccc(-n2nnn(C)c2=O)c1COc1ccc(-n2cc(C)c(C)n2)cc1C [Present compound 129, 1-{3-ethoxy-2-[2-methyl-4-(3,4-dimethyl-pyrazol-1-yl)-phenoxymethyl]-phenyl}-4-methyl-1,4-dihydrotetrazole-5-one]
lesion area compared to the lesion area in untreated plants ([1]; foliar spray 500 ppm): ≤ 30%
lesion area compared to the lesion area in untreated plants ([2]; foliar spray 200 ppm): ≤ 30%

COc1c(C)nn(-c2ccc(OCc3c(C)cccc3-n3nnn(C)c3=O)c(Cl)c2)c1C [Present compound 130, 1-{3-methyl-2-[2-chloro-4-(3,5-dimethyl-4-methoxy-pyrazol-1-yl)-phenoxymethyl]-phenyl}-4-methyl-1,4-dihydrotetrazole-5-one]
lesion area compared to the lesion area in untreated plants ([1]; foliar spray 500 ppm): ≤ 30%
lesion area compared to the lesion area in untreated plants ([2]; foliar spray 500 ppm): ≤ 30%

CCc1c(C)nn(-c2ccc(OCc3c(C)cccc3-n3nnn(C)c3=O)c(Cl)c2)c1C [Present compound 131, 1-{3-methyl-2-[2-chloro-4-(3,5-dimethyl-4-ethyl-pyrazol-1-yl)-phenoxymethyl]-phenyl}-4-methyl-1,4-dihydrotetrazole-5-one]
lesion area compared to the lesion area in untreated plants ([1]; foliar spray 200 ppm): ≤ 30%
lesion area compared to the lesion area in untreated plants ([2]; foliar spray 500 ppm): ≤ 30%

COc1cccc(-n2nnn(C)c2=O)c1COc1ccc(-c2nn(CC(F)(F)F)cc2C)cc1C [Present compound 141, 1-(2-{4-[4-methyl-1-(2,2,2-trifluoroethyl)-1H-pyrazol-3-yl)-2-methyl-phenoxymethyl}-3-methoxy-phenyl)-4-methyl-1,4-dihydrotetrazole-5-one]
lesion area compared to the lesion area in untreated plants ([1]; foliar spray 500 ppm): ≤ 30%
lesion area compared to the lesion area in untreated plants ([2]; foliar spray 200 ppm): ≤ 30%

COc1cccc(-n2nnn(C)c2=O)c1COc1ccc(-c2nn(CC(F)F)cc2C)cc1C [Present compound 142, 1-(2-{4-[4-methyl-1-(2,2-difluoroethyl)-1H-pyrazol-3-yl)-2-methyl-phenoxymethyl}-3-methoxy-phenyl)-4-methyl-1,4-dihydrotetrazole-5-one]
lesion area compared to the lesion area in untreated plants ([1]; foliar spray 200 ppm): ≤ 30%
lesion area compared to the lesion area in untreated plants ([2]; foliar spray 500 ppm): ≤ 30%

C#CCn1cc(C)c(-c2ccc(OCc3c(OC)cccc3-n3nnn(C)c3=O)c(C)c2)n1 [Present compound 143, 1-(2-{4-[4-methyl-1-(2-propynyl)-1H-pyrazol-3-yl)-2-methyl-phenoxymethyl}-3-methoxy-phenyl)-4-methyl-1,4-dihydrotetrazole-5-one]
lesion area compared to the lesion area in untreated plants ([1]; foliar spray 500 ppm): ≤ 30%
lesion area compared to the lesion area in untreated plants ([2]; foliar spray 500 ppm): ≤ 30%

CC#CCn1cc(C)c(-c2ccc(OCc3c(OC)cccc3-n3nnn(C)c3=O)c(C)c2)n1 [Present compound 144, 1-(2-{4-[4-methyl-1-(2-butynyl)-1H-pyrazol-3-yl)-2-methyl-phenoxymethyl}-3-methoxy-phenyl)-4-methyl-1,4-dihydrotetrazole-5-one]
lesion area compared to the lesion area in untreated plants ([1]; foliar spray 200 ppm): ≤ 30%
lesion area compared to the lesion area in untreated plants ([2]; foliar spray 500 ppm): ≤ 30%

CCn1cc(C)c(-c2ccc(OCc3c(OC)cccc3-n3nnn(C)c3=O)c(C)c2)n1 [Present compound 145, 1-{3-methoxy-2-[2-methyl-4-(1-ethyl-4-methyl-1H-pyrazol-3-yl)-phenoxymethyl]-phenyl}-4-methyl-1,4-dihydrotetrazole-5-one]
lesion area compared to the lesion area in untreated plants ([1]; foliar spray 200 ppm): ≤ 30%
lesion area compared to the lesion area in untreated plants ([2]; foliar spray 500 ppm): ≤ 30%

CCc1cccc(-n2nnn(C)c2=O)c1COc1cc(C)c(-n2ccc(C)n2)cc1C [Present compound 146, 1-{3-ethyl-2-[2,5-dimethyl-4-(3-methyl-pyrazol-1-yl)-phenoxymethyl]-phenyl}-4-methyl-1,4-dihydrotetrazole-5-one]
lesion area compared to the lesion area in untreated plants ([1]; foliar spray 500 ppm): ≤ 30%
lesion area compared to the lesion area in untreated plants ([2]; foliar spray 500 ppm): ≤ 30%

Cc1cccc(-n2nnn(C)c2=O)c1COc1ccc(-c2ccn(C)n2)cc1Cl [Present compound 148, 1-{3-methyl-2-[2-chloro-4-(1-methyl-1H-pyrazol-3-yl)-phenoxymethyl]-phenyl}-4-methyl-1,4-dihydrotetrazole-5-one]
lesion area compared to the lesion area in untreated plants ([1]; foliar spray 500 ppm): ≤ 30%
lesion area compared to the lesion area in untreated plants ([2]; foliar spray 200 ppm): ≤ 30%

CCc1cccc(-n2nnn(C)c2=O)c1COc1ccc(-c2ccn(C)n2)cc1Cl [Present compound 149, 1-{3-ethyl-2-[2-chloro-4-(1-methyl-1H-pyrazol-3-yl)-phenoxymethyl]-phenyl}-4-methyl-1,4-dihydrotetrazole-5-one]
lesion area compared to the lesion area in untreated plants ([1]; foliar spray 200 ppm): ≤ 30%
lesion area compared to the lesion area in untreated plants ([2]; foliar spray 200 ppm): ≤ 30%

COc1cccc(-n2nnn(C)c2=O)c1COc1ccc(-c2ccn(C)n2)cc1Cl [Present compound 150, 1-{3-methoxy-2-[2-chloro-4-(1-methyl-1H-pyrazol-3-yl)-phenoxymethyl]-phenyl}-4-methyl-1,4-dihydrotetrazole-5-one]
lesion area compared to the lesion area in untreated plants ([1]; foliar spray 500 ppm): ≤ 30%
lesion area compared to the lesion area in untreated plants ([2]; foliar spray 200 ppm): ≤ 30%

Cc1cn(C)nc1-c1ccc(OCc2c(C)cccc2-n2nnn(C)c2=O)c(Cl)c1 [Present compound 152, 1-{3-methyl-2-[2-chloro-4-(1,4-dimethyl-1H-pyrazol-3-yl)-phenoxymethyl]-phenyl}-4-methyl-1,4-dihydrotetrazole-5-one]
lesion area compared to the lesion area in untreated plants ([1]; foliar spray 200 ppm): ≤ 30%
lesion area compared to the lesion area in untreated plants ([2]; foliar spray 500 ppm): ≤ 30%

CCc1cccc(-n2nnn(C)c2=O)c1COc1ccc(-c2nn(C)cc2C)cc1Cl [Present compound 153, 1-{3-ethyl-2-[2-chloro-4-(1,4-dimethyl-1H-pyrazol-3-yl)-phenoxymethyl]-phenyl}-4-methyl-1,4-dihydrotetrazole-5-one]
lesion area compared to the lesion area in untreated plants ([1]; foliar spray 200 ppm): ≤ 30%
lesion area compared to the lesion area in untreated plants ([2]; foliar spray 200 ppm): ≤ 30%
